Results: patent US20220306695A1, “COMPSTATIN ANALOGUES AND THEIR MEDICAL USES” (priority 2019, published 2022)
Not every detail of the peptide structures is certain; ends, links or a residue may be inferred. Starred links: 1 amine or outer side, 2 acyl side, 3 side chain; linkers in the order of their positions; H or OH if unused. Positions of bridges follow the written chain, without caps; N, C: chain ends. Non-standard residues stand in square brackets, D forms with d. Residues, ends and D or L forms follow the SMILES beside them. Groups on a side chain read outwards from the residue. *: point of attachment. Trp(1-Me) = Cn1cc(C[C@H](N)C(=O)O)c2ccccc21; C18 diacid = O=C(O)CCCCCCCCCCCCCCCCC(=O)*; γGlu = O=C(O)[C@H](CCC(=O)[*:2])N[*:1]; Sar = CNCC(=O)O

System: classical complement pathway
Test: In vitro haemolysis assay (inhibition of classical complement pathway)
Type: cell-based
Conditions: Table 3; human serum, sensitized sheep red blood cells; read-out: IC50[nM], in vitro analysis of inhibition of hemolysis
Experimental: Method The in vitro effect of test compounds was assessed by measuring their inhibitory effect of the classical complement pathway in a haemolysis assay. Briefly, test compounds and reference compounds were dissolved in DMSO and diluted in Tris/Casein Assay Buffer (10 mM Tris, 145 mM NaCl, 0.5 mM MgCl2, 0.15 mM CaCl2, and 0.1% W/V Casein, adjusted to pH 7.4) as 9-point serial dilutions in a 96 well plate. Sensitized sheep red blood cells (RBC) coated with rabbit anti-sheep erythrocyte antiserum (Complement Technology, Inc., TX, USA) were washed in Tris/Casein Assay Buffer. 50 μL from each well of diluted compound was added to a 96-well plate containing 50 μL diluted human serum (Complement Technology, Inc., TX, USA) and incubated for 15 minutes at room temperature. The serum dilution factor was optimized for every serum batch to obtain 70-90% of maximal haemolysis using the protocol. Then 50 μL sensitized sheep red blood cells were added to all wells ([…] per well). After 30 minutes of incubation at 37° C. with gentle agitation, the reaction was stopped by addition of 50 μL Tris STOP Buffer per well (10 mM EDTA, 10 mM Tris, 145 mM NaCl adjusted to pH 7.4). The RBCs were then removed by centrifugation and the resulting supernatant measured for hemolysis by absorbance at 405 nm. […]

Structure (SMILES)	IC50 [nM]
CC[C@H](C)[C@@H]1NC(=O)[C@@H](NC(=O)[C@H](Cc2ccc(O)cc2)NC(=O)[C@H](C)NC(=O)[C@H](CO)NC(C)=O)CSSC[C@@H](C(=O)N(C)CC(=O)N[C@@H](CCC(=O)O)C(=O)N[C@@H](CCCCNC(=O)CC[C@H](NC(=O)CNC(=O)[C@H](CCCCN)NC(=O)CC[C@H](NC(=O)CCCCCCCCCCCCCCCCC(=O)O)C(=O)O)C(=O)O)C(N)=O)NC(=O)[C@H](CCCNC(=N)N)NC(=O)[C@H](Cc2c[nH]cn2)NC(=O)[C@H](CCC(=O)O)NC(=O)CNC(=O)[C@H](Cc2c[nH]c3ccccc23)NC(=O)[C@H](CC(=O)O)NC(=O)[C@H](CCC(N)=O)NC(=O)[C@H](Cc2cn(C)c3ccccc23)NC1=O [Compound 105] (Ac-SAYCI[Trp(1-Me)]QDWGEHRC[Sar]EK([γGlu-Gly-Lys-γGlu-C18 diacid])-NH2; disulfide 4-14)	< 100
CC[C@H](C)[C@@H]1NC(=O)[C@@H](NC(=O)[C@H](Cc2ccc(O)cc2)NC(=O)[C@H](CCC(=O)O)NC(=O)[C@H](CO)NC(C)=O)CSSC[C@@H](C(=O)N(C)CC(=O)N[C@@H](CCC(=O)O)C(=O)NCC(=O)N[C@@H](CCC(=O)O)C(=O)N[C@@H](CCCCNC(=O)CC[C@H](NC(=O)[C@H](CCCCN)NC(=O)CC[C@H](NC(=O)CCCCCCCCCCCCCCCCC(=O)O)C(=O)O)C(=O)O)C(N)=O)NC(=O)[C@H](CCCNC(=N)N)NC(=O)[C@H](Cc2c[nH]cn2)NC(=O)[C@H](CCC(=O)O)NC(=O)CNC(=O)[C@H](Cc2c[nH]c3ccccc23)NC(=O)[C@H](CC(=O)O)NC(=O)[C@H](CCC(N)=O)NC(=O)[C@H](Cc2cn(C)c3ccccc23)NC1=O [Compound 116] (Ac-SEYCI[Trp(1-Me)]QDWGEHRC[Sar]EGEK([γGlu-Lys-γGlu-C18 diacid])-NH2; disulfide 4-14)	< 500
